This is an account of results in US20240358767A1, “STEM CELL DIFFERENTIATION AND CHEMICAL COMPOUNDS” (VERTEX PHARMACEUTICALS INCORPORATED, priority 2021, published 2024).

The series has as its system Stem cells.

The structures appear in SMILES notation.

For the compound `Nc1ccc(C(=O)Nc2cccc(-c3nc(N4CCOCC4)c4oc5ncccc5c4n3)c2)cn1` [YM201636], the “nuclear blebbing in the resulting cell population” value is reported as “not to induce”.
